The supplement of paper PMC8728848
The list shows a part of the results.

Experiments:
Assay in all cases: glycan array binding signal (z-score within array); higher = stronger binding
Details in all cases: glycan notation: IUPAC condensed, linker removed
[1] = target: Fuc(a1-3)[Gal(b1-4)]Glc6S
Method in brief: (§1)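 Arrays were curated from the Consortium for Functional Glycomics database, 3228 in total, and kept only where the protein sequence was available. Binding is expressed as a within-array Z-score. This score was averaged across arrays of the same protein sequence at different concentrations or buffers and across linkers, and negative values can be read as non-binding.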

[2] = target: Fuc(a1-3)[Gal(b1-4)]GlcNAc
Method in brief: as §1

[3] = target: Fuc(a1-3)[Gal(b1-4)]GlcNAc(b1-2)Man
Method in brief: as §1

[4] = target: Fuc(a1-3)[Gal(b1-4)]GlcNAc(b1-2)Man(a1-3)[Fuc(a1-3)[Gal(b1-4)]GlcNAc(b1-2)Man(a1-6)]Man(b1-4)GlcNAc(b1-4)GlcNAc
Method in brief: as §1

[5] = target: Fuc(a1-3)[Gal(b1-4)]GlcNAc(b1-2)Man(a1-3)[Fuc(a1-3)[Gal(b1-4)]GlcNAc(b1-2)Man(a1-6)]Man(b1-4)GlcNAc(b1-4)[Fuc(a1-6)]GlcNAc
Method in brief: as §1

[6] = target: Fuc(a1-3)[Gal(b1-4)]GlcNAc(b1-3)Gal(b1-3)[Fuc(a1-4)]GlcNAc
Method in brief: as §1

[7] = target: Fuc(a1-3)[Gal(b1-4)]GlcNAc(b1-3)GalNAc
Method in brief: as §1

[8] = target: Fuc(a1-3)[Gal(b1-4)]GlcNAc(b1-4)Gal(b1-4)[Fuc(a1-3)]GlcNAc
Method in brief: as §1

[9] = target: Fuc(a1-3)[Gal(b1-4)]GlcNAc(b1-4)Gal(b1-4)[Fuc(a1-3)]GlcNAc(b1-4)Gal(b1-4)[Fuc(a1-3)]GlcNAc
Method in brief: as §1

[10] = target: Fuc(a1-3)[Gal(b1-4)]GlcNAc(b1-6)GalNAc
Method in brief: as §1

[11] = target: Fuc(a1-3)[Gal(b1-4)]GlcNAc(b1-6)[Gal(b1-3)GlcNAc(b1-3)]Gal(b1-4)Glc
Method in brief: as §1

[12] = target: Fuc(a1-3)[Gal(b1-4)]GlcNAc6S
Method in brief: as §1

[13] = target: Fuc(a1-3)[Gal3S(b1-4)]Glc
Method in brief: as §1

[14] = target: Fuc(a1-3)[Gal3S(b1-4)]GlcNAc
Method in brief: as §1

[15] = target: Fuc(a1-3)[Gal3S(b1-4)]GlcNAc6S
Method in brief: as §1

[16] = target: Fuc(a1-3)[GalNAc(b1-4)]GlcNAc
Method in brief: as §1

[17] = target: Fuc(a1-3)[GalNAc(b1-4)]GlcNAc6S
Method in brief: as §1

Fuc(a1-4)GlcNAc = target: Fuc(a1-4)GlcNAc
Method in brief: as §1

Fuc(b1-3)GlcNAc = target: Fuc(b1-3)GlcNAc
Method in brief: as §1

Gal(a1-2)Gal = target: Gal(a1-2)Gal
Method in brief: as §1

Gal(a1-3)Gal = target: Gal(a1-3)Gal
Method in brief: as §1

Gal(a1-3)Gal(b1-3)GlcNAc = target: Gal(a1-3)Gal(b1-3)GlcNAc
Method in brief: as §1

[18] = target: Gal(a1-3)Gal(b1-3)GlcNAc(b1-2)Man
Method in brief: as §1

[19] = target: Gal(a1-3)Gal(b1-3)GlcNAc(b1-2)Man(a1-3)[Gal(a1-3)Gal(b1-3)GlcNAc(b1-2)Man(a1-6)]Man(b1-4)GlcNAc(b1-4)GlcNAc
Method in brief: as §1

[20] = target: Gal(a1-3)Gal(b1-3)GlcNAc(b1-3)GalNAc
Method in brief: as §1

[21] = target: Gal(a1-3)Gal(b1-3)GlcNAc(b1-6)GalNAc
Method in brief: as §1

[22] = target: Gal(a1-3)Gal(b1-3)[Fuc(a1-4)]GlcNAc(b1-2)Man(a1-3)[Gal(a1-3)Gal(b1-3)[Fuc(a1-4)]GlcNAc(b1-2)Man(a1-6)]Man(b1-4)GlcNAc(b1-4)GlcNAc
Method in brief: as §1

Gal(a1-3)Gal(b1-4)Glc = target: Gal(a1-3)Gal(b1-4)Glc
Method in brief: as §1

Gal(a1-3)Gal(b1-4)GlcNAc = target: Gal(a1-3)Gal(b1-4)GlcNAc
Method in brief: as §1

[23] = target: Gal(a1-3)Gal(b1-4)GlcNAc(b1-2)Man
Method in brief: as §1

B1: Blon0732mut (Bifidobacterium longum) (protein)
chain: MPTSEHKADDATRHLTLIPAPVTLEYTHGTALIGPLVTIEDADQSWETLPIEQLSDELRHRYGVTVLRRRTHGTVISLGLDSRLAHDEYTLDVSESEGIRVRGGGESGLRYGLQTLRQIIGQTSRAIPCLHIQDKPAFAVRAYSLDVTRGRVPTMEFLTWFVDQLALYKYNQFQLYVEHAFAFVELSEAWRGTDPLTAADITYLDEYCARRGIELVPSLATFGHMYMNLRTREHRGLGEFPEDADRPFSFIERMEHHTLNAADPKAHDFASRLIEEYAPLFRSKSFNIGGNETFDLGRGRSAQDAPEAGRDELYAGFVRDLCETLARHGRQPMLWADIALESPRTMDLLPGDITMLNWMYEPQIDESKIQTIATQGRRQFVCPAVRAWSRFFPDYAGAWLNTYHMALAGTKYDAEGMVVTDWGDYGHVNDPRLSVPGLCYGAQNAWNPIEIDAHEMNRRISALVYGDESGRIMDCLARIDSDGVSFPWDLAVQVLELEYGSGTGALNMDVAACMERSSGGKLTLDRTLGCDDARRRMLQWNRERIERRRDCDQVLRDCGDAFAGLDKGGLTAEFLSVMLDGQRLFNELGEELLALADGKDVGSGANRLAADLELWFERYRAQWLSVGRHAELARIAHVVWSLADILRRGAL
glycan array binding signal (z-score) [1]: 0.149
glycan array binding signal (z-score) [2]: -0.227
glycan array binding signal (z-score) [3]: 0.245
glycan array binding signal (z-score) [4]: 1.12
glycan array binding signal (z-score) [5]: -0.597
glycan array binding signal (z-score) [6]: -0.679
glycan array binding signal (z-score) [7]: 0.249
glycan array binding signal (z-score) [8]: -0.424
glycan array binding signal (z-score) [9]: -0.037
glycan array binding signal (z-score) [10]: 1.4
glycan array binding signal (z-score) [11]: -1.19
glycan array binding signal (z-score) [12]: 0.003
glycan array binding signal (z-score) [13]: 0.203
glycan array binding signal (z-score) [14]: -0.792
glycan array binding signal (z-score) [15]: -0.391
glycan array binding signal (z-score) [16]: 1.89
glycan array binding signal (z-score) [17]: -0.444
glycan array binding signal (z-score) (Fuc(a1-4)GlcNAc): -0.304
glycan array binding signal (z-score) (Fuc(b1-3)GlcNAc): -0.285
glycan array binding signal (z-score) (Gal(a1-2)Gal): -0.299
glycan array binding signal (z-score) (Gal(a1-3)Gal): 0.305
glycan array binding signal (z-score) (Gal(a1-3)Gal(b1-3)GlcNAc): -0.787
glycan array binding signal (z-score) [18]: -1.26
glycan array binding signal (z-score) [19]: 0.42
glycan array binding signal (z-score) [20]: 0.447
glycan array binding signal (z-score) [21]: -0.309
glycan array binding signal (z-score) [22]: -0.11
glycan array binding signal (z-score) (Gal(a1-3)Gal(b1-4)Glc): 0.782
glycan array binding signal (z-score) (Gal(a1-3)Gal(b1-4)GlcNAc): -1.07
glycan array binding signal (z-score) [23]: -0.505
